Experimental data as given in PMC10403576.
These are yes or no findings as the source states them, for the method shown. Some results given as binding are weak or reduced against the parent protein; the word gives no strength.

Chains of the proteins cited; added tags and fusions are not shown. Residues count along the entry.
UniProt P29255: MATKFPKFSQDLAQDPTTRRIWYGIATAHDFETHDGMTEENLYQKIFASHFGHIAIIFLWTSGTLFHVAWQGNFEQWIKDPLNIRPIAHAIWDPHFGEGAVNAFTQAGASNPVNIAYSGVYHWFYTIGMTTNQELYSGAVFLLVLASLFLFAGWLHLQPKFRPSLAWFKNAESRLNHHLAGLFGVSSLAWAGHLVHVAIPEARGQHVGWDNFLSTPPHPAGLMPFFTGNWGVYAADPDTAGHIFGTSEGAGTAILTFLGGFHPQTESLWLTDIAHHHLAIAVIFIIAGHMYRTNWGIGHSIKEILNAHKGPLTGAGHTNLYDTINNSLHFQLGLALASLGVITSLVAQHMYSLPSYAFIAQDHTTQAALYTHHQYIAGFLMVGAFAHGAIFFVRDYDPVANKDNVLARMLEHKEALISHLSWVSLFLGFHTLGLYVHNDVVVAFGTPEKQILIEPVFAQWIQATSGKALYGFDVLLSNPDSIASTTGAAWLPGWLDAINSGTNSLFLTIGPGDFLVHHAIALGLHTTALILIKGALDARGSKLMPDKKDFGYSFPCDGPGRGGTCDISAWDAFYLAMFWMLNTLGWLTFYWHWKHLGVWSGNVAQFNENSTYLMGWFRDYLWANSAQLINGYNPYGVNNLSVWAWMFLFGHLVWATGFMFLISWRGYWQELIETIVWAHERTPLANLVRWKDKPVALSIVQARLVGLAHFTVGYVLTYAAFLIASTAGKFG
UniProt P09192, residues 2-330: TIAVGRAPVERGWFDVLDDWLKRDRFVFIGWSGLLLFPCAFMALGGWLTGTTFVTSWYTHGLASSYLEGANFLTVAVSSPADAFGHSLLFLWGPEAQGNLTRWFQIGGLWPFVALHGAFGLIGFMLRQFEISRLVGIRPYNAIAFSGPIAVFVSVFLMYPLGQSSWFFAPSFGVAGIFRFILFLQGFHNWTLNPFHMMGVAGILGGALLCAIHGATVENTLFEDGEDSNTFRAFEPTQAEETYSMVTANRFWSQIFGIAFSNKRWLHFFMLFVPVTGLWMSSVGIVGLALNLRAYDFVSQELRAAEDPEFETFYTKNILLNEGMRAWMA

Experiments:
[1] = target: PsaB RC subunit of PSI (Synechocystis sp. PCC 6803) (UniProt P29255); assay: cryo-EM structure; RCII/PSI complex co-purified from Synechocystis via His-tagged D2; 0.1% FOM; two classes at 3.2 Å and 3.1 Å, PSI-focused map at 2.9 Å; both purified
[2] = target: His-tagged D2 reaction center subunit of PSII (Synechocystis sp. PCC 6803) (UniProt P09192); assay: as above

- binding [1]: binds
- binding [2]: binds
B1: Ycf48 accessory factor (protein, UniProt P73069 29-342)
chain: CSHVPDLAFNPWQEIALETDSTFADIAFTEDPNHGWLVGTKETIFETTDGGDTWEQKLIDLGEEKASFSAVSFSGNEGWITGKPSILLHTTDGGQTWARIPLSEKLPGAPYSIIALGPQTAEMITDLGAIYKTTNGGKNWKALVEGAVGVARTIQRSTDGRYVAVSARGNFYSTWAPGQTEWTPHNRNSSRRLQTMGYGKDGQLWLLARGGQLQFSTDPDAEEWSDVIAPQDKGSWGLLDLSFRTPEEVWVAGASGNLLMSQDGGQTWAKDTGVEDIPANLYRVVFLSPEKGFVLGQDGILLKYNPSTEVAMVP
modifications: lipidation of the Ycf48-Cys29 N-terminal residue
